T/C and survivor count data for 7 compounds are collected here from PubChem BioAssay AID328 (DTP/NCI, 2004).

The subject of the experiment is BDF1 mice, P388 leukemia ip, median survival T/C. In words: NCI In Vivo Anticancer Drug Screen. Data for tumor model P388 Leukemia (intraperitoneal) in B6D2F1 (BDF1) mice. To be noted: T/C endpoint: median survival time, higher T/C = longer survival. The essentials:
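Each value expresses how treatment altered survival: treated-mouse outcome over vehicle-mouse outcome, both groups bearing the transplanted tumour.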

[1] abbreviates: dose: 200.0 mg/kg/injection, schedule: Q01DX009 (ip), vehicle: saline.

The list shows only some results of the screen, not a fair sample: it gathers tests that were run many times, whatever their T/C, doses with no T/C, and many T/C values between a quarter and a half above the control. Other doses and runs of a compound stand elsewhere. T/C: endpoint of the treated group in % of that of the vehicle group. Some entries give survivors of the animals treated and no T/C: the source holds a T/C of zero for them, seemingly a mark for toxic or unscored doses. Some survivor counts are full or nearly so, which does not show that the dose was tolerated: survival well below the control is almost never listed, so the zero probably covers shortened survival too. Counts of survivors are from the toxicity check (mostly the fifth day) where no day follows; animals may have died later. Schedule codes are those of the source, taken here to give the interval after Q, in days (D) or hours (H), and the number of doses after X. Some entries hold several experiments; the results are listed from low to high. For survival time, the PubChem record calls one and a half times the control and up active, and a quarter to a half above the control has no call in these data; cut-offs in other NCI protocols can differ. Signs of the kind (2×) say how often a value occurs here.

`NC(CSCc1ccc(N(CCCl)CCCl)cc1)C(=O)O` (stereo not drawn): the T/C reads like this: (dose: 1.8 mg/kg/injection, schedule: Q04DX003 (ip), vehicle: Klucel (hydroxypropylcellulose) (HPC)) 125 % of control; (dose: 2.6 mg/kg/injection, schedule: Q04DX003 (ip), vehicle: Klucel (hydroxypropylcellulose) (HPC)) 129 % of control; (dose: 4.0 mg/kg/injection, schedule: Q04DX003 (ip), vehicle: Klucel (hydroxypropylcellulose) (HPC)) 141 % of control. Moreover, the survivor count is 6 of 6 (dose: 100.0 mg/kg/injection, schedule: Q01DX009 (ip), vehicle: Klucel (hydroxypropylcellulose) (HPC)); 5 of 6 (dose: 132.0 mg/kg/injection, schedule: Q04DX003 (ip), vehicle: saline with Tween-80); 6 of 6 (dose: 200.0 mg/kg/injection, schedule: Q01DX009 (ip), vehicle: Klucel (hydroxypropylcellulose) (HPC)); 6 of 6 (dose: 200.0 mg/kg/injection, schedule: Q04DX003 (ip), vehicle: saline with Tween-80); 6 of 6 (dose: 300.0 mg/kg/injection, schedule: Q04DX003 (ip), vehicle: saline with Tween-80).

In the case of `CC(C)(O)c1cccc(F)c1`, where the note is “dose: 400.0 mg/kg/injection, schedule: Q01DX009 (ip), vehicle: saline with Tween-80”, the T/C is 135 % of control.

As to `COc1cc([C@@H]2c3cc4c(cc3[C@H](O)[C@H]3COC(=O)[C@H]23)OCO4)cc(OC)c1OC`, the T/C runs as follows: (dose: 1.0 mg/kg/injection, schedule: Q01DX010 (ip), vehicle: carboxymethylcellulose (CMC)) 133 % of control (2×); (dose: 2.0 mg/kg/injection, schedule: Q01DX010 (ip), vehicle: carboxymethylcellulose (CMC)) 142 % of control; (dose: 2.0 mg/kg/injection, schedule: Q01DX010 (ip), vehicle: steroid suspending solution) 127 % of control; (dose: 4.0 mg/kg/injection, schedule: Q01DX010 (ip), vehicle: steroid suspending solution) 140 % of control; (dose: 4.5 mg/kg/injection, schedule: Q01DX001 (ip), vehicle: other) 126 % of control; (dose: 8.0 mg/kg/injection, schedule: Q01DX010 (ip), vehicle: steroid suspending solution) 136 % of control. Moreover, for the setting “dose: 18.0 mg/kg/injection, schedule: Q01DX001 (ip), vehicle: other”, the T/C is 126 % of control. For the same compound, the survivor count (dose: 4.0 mg/kg/injection, schedule: Q01DX010 (ip), vehicle: carboxymethylcellulose (CMC)) is reported as 4 of 6; the survivor count (dose: 8.0 mg/kg/injection, schedule: Q01DX010 (ip), vehicle: carboxymethylcellulose (CMC)) is 0 of 6 and 3 of 6; the survivor count (dose: 16.0 mg/kg/injection, schedule: Q01DX010 (ip), vehicle: carboxymethylcellulose (CMC)) is reported as 1 of 6; the survivor count (dose: 18.0 mg/kg/injection, schedule: Q01DX010 (ip), vehicle: other) is reported as 4 of 6.

Take `CCCCN=CC(C)(C)NCCCC`: the survivor count reads like this: under setting [1], 0 of 6 and 2 of 6; (dose: 400.0 mg/kg/injection, schedule: Q04DX003 (ip), vehicle: saline) 3 of 6.

In the case of `CC1CNC(=O)O1` (stereo not drawn), the survivor count (dose: 50.0 mg/kg/injection, schedule: Q04DX003 (ip), vehicle: saline) is on record as 6 of 6.

On to `CN1CCc2cc3c4cc2C1Cc1ccc(O)c(c1)Oc1ccc(cc1)CC1c2c(cc(O)c(c2O4)O3)CCN1C` (stereo not drawn), for which the survivor count (dose: 15.0 mg/kg/injection, schedule: Q01DX009 (ip), vehicle: saline with Tween-80) is 3 of 3 and the survivor count (dose: 30.0 mg/kg/injection, schedule: Q01DX009 (ip), vehicle: saline with Tween-80) was 2 of 3.

Turning to `CCc1nnc2ncccn12`, the T/C (dose: 100.0 mg/kg/injection, schedule: Q01DX009 (ip), vehicle: saline) is 129 % of control and the T/C under setting [1] is 127 % of control. In addition, the survivor count (dose: 400.0 mg/kg/injection, schedule: Q01DX009 (ip), vehicle: saline) was 1 of 6 and 2 of 6.
